For this assay, the target named is TGF-β3 (UniProt P10600). Description: SPR competition, receptor with 0.8 nM TGF-β3 over immobilized 1D11.

By UniProt entry, the sequences of proteins in these tests, tags left out. Residues count along the entry.
UniProt P10600, residues 301-412: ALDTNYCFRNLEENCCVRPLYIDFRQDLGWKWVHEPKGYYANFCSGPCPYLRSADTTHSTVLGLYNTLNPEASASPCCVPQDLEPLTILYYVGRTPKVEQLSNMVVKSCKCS

These are yes or no findings as the source states them, for the method shown. Some results given as binding are weak or reduced against the parent protein; the word gives no strength. Tags and fused reporters may be left off the sequences shown.

B1: RII-RIII (REU) fusion (protein)
chain: AAANGAVKFPQLCKFCDVRFSTCDNQKSCMSNCSITSICEKPQEVCVAVWRKNDENITLETVCHDPKLPYHDFILEDAASPKCIMKEKKKPGETFFMCSCSSDECNDNIIFSEEYNTSNPDGLGPVESSPGHGLDTAAACELSPINASHPVQALMESFTVLSGCASRGTTGLPREVHVLNLRSTDQGPGQRQREVTLHLNPIASVHTHHKPIVFLLNSPQPLVWHLKTERLAAGVPRLFLVSEGSVVQFPSGNFSLTAETEERNFPQENEHLLRWAQKEYGAVTSFTELKIARNIYIKVGEDQVFPPTCNIGKNFLSLNYLAEYLQPKAAEGCVLPSQPHEKEVHIIELITPSSNPYSAFQVDIIVDIRPAQEDPEVVKNLVLILKCKKSVNWVIKSFDVKGNLKVIAPNSIGFGKESERSMTMTKLVRDDIPSTQENLMKWALDNGYRPVTSYTMAPVANRFHLRLENNEEMRDEEVHTIPPELRILLDPDHPPALDNPLFPGEGSPNGGLPFPFPDIPRRGWKEGEDRIPRPKQPIVPSVQLLPDHREPEEVQGGVDIALSVKCDHEKMVVAVDKDSFQTNGYSGMELTLLDPSCKAKMNGTHFVLESPLNGCGTRHRRSTPDGVVYYNSIVVQAPSPGDSAGWPDGYEDLEAGDNGFPGDGDEGETAPLSRAGVVVFNCSLRQLRNPSGFQGQLDGNATFNMELYNTDLFLVPSPGVFSVAENEHVYVEVSVTKADQDLGFAIQTCFLSPYSNPDRMSDYTIIENICPKDDSVKFYSSKRVHFPIPHAEVDKKRFSFLFKSVFNTSLLFLHCELTLCSRKKGSLKLPRCVTPDDACTSLDATMIWTMMQNKKTFTKPLAVVLQVD
B1: the binding entry was “binds”.

The values are drawn from patent US20170166624A1.
